Experimental data as given in paper PMC7586746, “A putative nuclear copper chaperone promotes plant immunity in Arabidopsis” (Journal of Experimental Botany, 2020).
For at least one entry, the source does not settle the construct or the ends of the probe. For part of these data: Weaker means in comparison with the reference protein, sequence or condition of that experiment. For part of these data: Protein sequences can lack the tags named with them.

How the values were obtained:
Assay in all cases: EMSA
[1] = test system: CCP (Arabidopsis thaliana); conditions: CCP alone, faint binding; LightShift EMSA kit: 500 ng GST-tagged protein, 4 fmol biotin-LS7 probe, 20 ul with 1 ul dI-dC, 1 ul 50% glycerol, kit 10x binding buffer, 20 min, 25 C; 6% native gel; recombinant protein; protein details: GST (N-terminal)
TGA2 = target: T1, TGA2 (UniProt P43273); conditions: TGA2 alone, faint binding; LightShift EMSA kit: 500 ng GST-tagged protein, 4 fmol biotin-LS7 probe, 20 ul with 1 ul dI-dC, 1 ul 50% glycerol, kit 10x binding buffer, 20 min, 25 C; 6% native gel; recombinant protein; residues 1-330; protein details: GST (N-terminal)
T1 sequence (looked up): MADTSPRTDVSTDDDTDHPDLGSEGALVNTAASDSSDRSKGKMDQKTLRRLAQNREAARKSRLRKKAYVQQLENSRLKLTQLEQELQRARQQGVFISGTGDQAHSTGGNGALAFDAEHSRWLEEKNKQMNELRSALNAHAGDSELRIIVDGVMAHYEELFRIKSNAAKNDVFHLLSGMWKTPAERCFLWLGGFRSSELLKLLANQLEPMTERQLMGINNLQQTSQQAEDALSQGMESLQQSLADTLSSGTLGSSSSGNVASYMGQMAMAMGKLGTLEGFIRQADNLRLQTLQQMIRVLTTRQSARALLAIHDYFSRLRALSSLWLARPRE

TGA2 + CCP = conditions: with CCP, substantially more probe bound than TGA2 alone; LightShift EMSA kit: 500 ng GST-tagged protein, 4 fmol biotin-LS7 probe, 20 ul with 1 ul dI-dC, 1 ul 50% glycerol, kit 10x binding buffer, 20 min, 25 C; 6% native gel; recombinant protein; protein details: GST (N-terminal),GST (N-terminal)

TATTTTACTTACGTCATAGATGTGGCGGCA (double strand) [LS7 probe (PR1 promoter)]
binding result [1]: binds more weakly
binding result (TGA2): binds more weakly
binding result (TGA2 + CCP): binds
